Experimental data reported in PubChem BioAssay AID1487 (National Center for Advancing Translational Sciences (NCATS), 2009).
Several values for one entry are separate records, joined by “and”; a condition that tells them apart may be missing. Equal entries are not always repeated. The list shows a part of the results. Further columns of the screen follow, without active or inactive calls. Compounds called inactive in the main read-out are mostly missing here. The note in brackets gives the kind of curve behind each potency; many fits are weak.

Experiment: qHTS Assay for Modulators of Lamin A Splicing
Conditions: HeLa LMNA splicing GFP/RFP minigene ratio, 48 h
Method in brief: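 S3 HeLa cells stably expressing lamin A-EGFP splicing minigene plus DsRed2, 600 cells/well, 48 h compound exposure at 37C. Laser-scanning cytometry; analysed as GFP (500-530 nm)/RFP (575-640 nm) total intensity ratio; 0.5% DMSO vehicle.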

[1] = measured here: RFP viability control channel
[2] = measured here: GFP splicing reporter channel

SMILES	AC50 [1]	AC50 [2]
CCn1c(=O)c(C(=O)NCCc2ccccc2)c(O)c2ccccc21	14.1 µM [rising, single point]	
CCOc1ccc(Nc2oc(-c3ccc(COc4ccc(C)cc4)o3)nc2C#N)cc1	31.6 µM [falling, partial curve, poor fit]	2.24 µM [falling, partial curve]
CCOC(=O)/C(=N\Nc1ccccc1[N+](=O)[O-])c1csc(N)n1	0.0282 µM [falling, full curve]	0.891 µM [falling, full curve]
CCCCC(=O)Nc1ccc(C(=O)OCc2cc(=O)n3ccsc3n2)cc1		35.5 µM [falling, partial curve, poor fit]
CCOC(=O)c1sc2cccc(F)c2c1S(=O)(=O)Nc1ccccc1F	28.2 µM [rising, single point]	25.1 µM [rising, single point]
Cc1ccc(NC(=O)Cn2c(=O)cc(-c3ccccc3)c3c(C)nn(C)c32)c(Cl)c1		0.282 µM [rising, full curve]
CCOc1ccc(S(=O)(=O)NC2CCCCCC2)cc1	35.5 µM [falling, single point]	
c1ccn2cc(CSC3=NCCS3)nc2c1	2.51 µM [rising, partial curve, poor fit]	
C=CCNC(=O)c1onc(CSc2ccc(Cl)cc2)c1C(=O)O		12.6 µM [falling, single point]
COc1ccc(OC)c(S(=O)(=O)NCc2ccc3c(c2)CCN3C(=O)c2cccc(C)c2)c1	20 µM [falling, single point]	17.8 µM [falling, single point]
O=C(NC(c1ccccc1)c1c(O)ccc2ccccc12)c1ccccc1Cl (stereo unspecified)	22.4 µM [falling, single point]	35.5 µM [falling, single point]
CC(=O)N(CCC1(C(C)C)CCOC(C)(C)C1)Cc1ccco1 (stereo unspecified)	0.00891 µM [rising, full curve, poor fit]	0.00355 µM [rising, full curve, poor fit]
Cc1ccc(NC(=S)N(C)Cc2cn(C)c3ccccc23)cc1	15.8 µM [rising, partial curve]	
Cc1ccc2c(c1)cc(CN(Cc1ccc3c(c1)OCO3)S(=O)(=O)c1ccccc1)c1nnnn12		12.6 µM [rising, partial curve, poor fit]
CC1CCN(C(=S)c2cn(Cc3cccc(F)c3)c3ccccc23)CC1	31.6 µM [rising, single point]	35.5 µM [rising, single point]
CCn1c(=O)cc(SCC(=O)NCCCN2CCN(c3ccccc3F)CC2)c2ccccc21	35.5 µM [rising, single point]	
Cc1ccccc1CNC(=O)c1ccc(Cn2c(SCc3ccccc3)nc3cccnc32)cc1		0.02 µM [falling, full curve, poor fit]
O=S(=O)(c1ccccc1)c1cnc(-c2cccnc2)nc1-c1ccc(Cl)cc1Cl	17.8 µM [falling, partial curve]	11.2 µM [falling, single point]
COc1ccccc1NC(=O)CSC(N)=O	11.2 µM [rising, single point]	
S=C(NCCSCc1ccc(Cl)cc1Cl)Nc1ccccc1	22.4 µM [falling, partial curve]	15.8 µM [falling, partial curve]
Cc1ccc(-c2csc(NNC(=O)c3ccccc3)n2)cc1	35.5 µM [rising, single point]	14.1 µM [rising, partial curve, poor fit]
O=C(CCCSc1nc(-c2ccco2)cc(C(F)(F)F)n1)NCc1cccs1		11.2 µM [rising, partial curve, poor fit]
CCOC(=O)c1ccc(NC(=O)c2cc(S(=O)(=O)N3CCOCC3)ccc2O)cc1	12.6 µM [rising, single point]	
Cc1cccc(C)c1NC(=O)CN(C)S(=O)(=O)c1ccc2[nH]c3c(c2c1)CCCC3		11.2 µM [falling, partial curve, poor fit]
CC(=O)Nc1ccccc1OCCOc1ccc(Br)cc1	8.91 µM [rising, partial curve, poor fit]	
O=C(Nc1nc(-c2ccc(S(=O)(=O)N3CCCCCC3)cc2)cs1)c1cccs1	3.16 µM [rising, single point]	3.55 µM [rising, partial curve, poor fit]

Retrieved by compound from the entries so far (3):
SMILES	AC50 [1]	AC50 [2]
Cc1ccc(NC(=S)N(C)Cc2cn(C)c3ccccc23)cc1	15.8 µM [rising, partial curve]	
Cc1ccc2c(c1)cc(CN(Cc1ccc3c(c1)OCO3)S(=O)(=O)c1ccccc1)c1nnnn12		12.6 µM [rising, partial curve, poor fit]
CCOc1ccc(Nc2oc(-c3ccc(COc4ccc(C)cc4)o3)nc2C#N)cc1	31.6 µM [falling, partial curve, poor fit]	2.24 µM [falling, partial curve]

Additional compounds.

SMILES	AC50 [1]	AC50 [2]
CC(C)COc1ccc(C(=O)N2CCC(c3nc4ccccc4s3)CC2)cc1	25.1 µM [falling, partial curve, poor fit]	35.5 µM [falling, single point]
COc1ccc(C)cc1S(=O)(=O)N1c2ccccc2CC1C (stereo unspecified)	35.5 µM [rising, single point]	
Cc1ccc(-n2nnnc2SCc2nnc(-c3ccccc3Br)o2)cc1	35.5 µM [rising, single point]	
O=C(Cc1ccc(Br)cc1)Nc1ccc(S(=O)(=O)NCC2CCCO2)cc1 (stereo unspecified)	11.2 µM [falling, partial curve]	
CC1Cc2cc(C3(O)C(=O)c4ccccc4C3=O)ccc2N1 (stereo unspecified)	5.01 µM [rising, partial curve, poor fit]	
c1cc(C2CCN(Cc3nc(-c4ccc5c(c4)OCO5)no3)CC2)ccn1	20 µM [falling, partial curve, poor fit]	12.6 µM [falling, single point]
Cc1ccc(-c2cc(C(=O)Nc3cccnc3)c3ccccc3n2)o1	15.8 µM [rising, partial curve, poor fit]	
Cc1cccc(-c2c3c(=O)n(C)c(=O)n(C)c3c3cccnn23)c1	3.98 µM [rising, partial curve, poor fit]	22.4 µM [rising, partial curve, poor fit]
CCc1nc2c(cnn2-c2ccc(Cl)cc2)c(=O)n1-c1ccc(OC)cc1	8.91 µM [rising, partial curve]	6.31 µM [rising, partial curve]
O=C(CSc1nnc(-c2ccccc2)c(-c2ccccc2)n1)NCc1ccco1	11.2 µM [rising, partial curve]	
CCOc1ccccc1N1CCN(C(=O)c2ccc3[nH]c4c(c3c2)CCCC4)CC1	17.8 µM [rising, partial curve, poor fit]	2.24 µM [rising, partial curve]
O=C1c2cccc(O)c2C(=O)c2c(O)cccc21	17.8 µM [rising, single point]	39.8 nM [rising, partial curve, poor fit] and 5.62 µM [falling, partial curve]
O=C(Cc1ccc(Cl)cc1)Nc1ccc(-c2nnc(-c3ccco3)o2)cc1	15.8 µM [rising, single point]	20 µM [rising, single point]
COc1ccc(OC)c(S(=O)(=O)Nc2cnc3ccccc3c2)c1	6.31 µM [rising, partial curve, poor fit]	
O=C(N/N=C/c1ccccc1)c1ccc(CN2C(=O)c3cccc4cccc2c34)cc1	35.5 µM [rising, single point]	28.2 µM [rising, single point]
C=CCn1c(SCC(=O)/C(C#N)=C(\C)N)nc2sc(CC)cc2c1=O	35.5 µM [rising, single point]	17.8 µM [rising, single point]
COc1ccc(Nc2nc(-c3ccccc3F)nc3ccccc23)cc1OC	0.0178 µM [falling, full curve, poor fit]	35.5 µM [falling, partial curve]
CCCCOc1ccc(CSC2=NCCN2)cc1[N+](=O)[O-]	35.5 µM [rising, single point]	35.5 µM [rising, single point]
CCOC(=O)c1sc(NS(=O)(=O)c2ccc(F)cc2)nc1C	0.158 µM [falling, full curve, poor fit]	0.126 µM [falling, full curve, poor fit]
CC1=NN(c2ccccc2)C(=O)/C1=C\c1ccc(Oc2ccc([N+](=O)[O-])cc2[N+](=O)[O-])cc1	7.94 µM [rising, partial curve]	
Cc1noc(-c2ccc(-c3noc(-c4ccc(C(F)(F)F)cc4)n3)cc2)n1	0.0501 µM [falling, full curve, poor fit]	0.02 µM [falling, full curve, poor fit]
CC(=O)c1cccc(S(=O)(=O)NC2CC2)c1	12.6 µM [rising, partial curve]	
O=C(CCCl)N(Cc1nc2ccccc2c(=O)[nH]1)Cc1cccs1	0.0112 µM [rising, full curve, poor fit]	
COc1ccccc1N1CCN(C(=O)C(Sc2ccccc2)c2ccccc2)CC1 (stereo unspecified)	15.8 µM [rising, partial curve, poor fit]	
O=C(Nc1ccn(Cc2ccccc2F)n1)c1ccc(COc2cccc(Br)c2)cc1	25.1 µM [rising, single point]	
CCC(=O)N(Cc1ccco1)c1nc(C(=O)Nc2ccc(Cl)cc2)c(C)s1	15.8 µM [rising, partial curve]	
